This is an account of results in patent US20100313296A1.

No constants are given. Whether binding was seen depends on the method and setting. Some binding calls cover weakened binding; strength is not graded here. Sequences can lack the tags named with a protein.

This assay addresses T1, DNA binding domain fused OsRHC1 (pGBKT7-OsRHC1) (rice).
T1 sequence: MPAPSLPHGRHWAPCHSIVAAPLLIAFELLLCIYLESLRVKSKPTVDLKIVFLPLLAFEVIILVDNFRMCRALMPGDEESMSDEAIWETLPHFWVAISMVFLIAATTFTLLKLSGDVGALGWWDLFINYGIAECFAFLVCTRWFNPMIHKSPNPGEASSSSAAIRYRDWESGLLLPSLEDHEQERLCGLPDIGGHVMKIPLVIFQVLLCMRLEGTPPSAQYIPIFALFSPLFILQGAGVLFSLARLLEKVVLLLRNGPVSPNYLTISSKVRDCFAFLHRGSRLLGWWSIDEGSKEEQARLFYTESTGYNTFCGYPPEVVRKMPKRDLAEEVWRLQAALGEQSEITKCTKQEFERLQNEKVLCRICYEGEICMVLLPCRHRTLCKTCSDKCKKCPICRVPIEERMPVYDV
Briefly: yeast two hybrid: growth on SD/-3 and SD/-4 plates, lacZ colony-lift filter assay; confirmed by retransformation into AH109.

B1: HML1797, partial clone of expressed protein ABA98865.1 fused to the AD domain (pGADT7-HML1797) (protein, not shown: small tags and cut ends)
chain: MAVGSERLGEEAARRQLGEARKARGGCSATRDGADDEGRRQINPPSPVWSSPPSLPLPLRSARRGTGGGRRPPFPLSSQIRPVGRGHRRQRHGPPLCSSRGRQGGGHRAVFFYLFLF
With B1, the binding entry is reported as “binds”.
